Test results taken from article doi:10.1101/2023.01.27.525873.
These are yes or no findings as the source states them, for the method shown. In cells and extracts the contact can be indirect. Some binding calls cover weakened binding; strength is not graded here.

By UniProt entry, the sequences of proteins in these tests, tags left out. Where a name states a change or a piece, a line headed by the entry shows the natural chain unless it says otherwise. Chains listed by the source or under a name are the forms on record and can include a tag or linker. Residues count along the entry.
HA-STIM2.3 fused to YFPc (Q9P246, form named): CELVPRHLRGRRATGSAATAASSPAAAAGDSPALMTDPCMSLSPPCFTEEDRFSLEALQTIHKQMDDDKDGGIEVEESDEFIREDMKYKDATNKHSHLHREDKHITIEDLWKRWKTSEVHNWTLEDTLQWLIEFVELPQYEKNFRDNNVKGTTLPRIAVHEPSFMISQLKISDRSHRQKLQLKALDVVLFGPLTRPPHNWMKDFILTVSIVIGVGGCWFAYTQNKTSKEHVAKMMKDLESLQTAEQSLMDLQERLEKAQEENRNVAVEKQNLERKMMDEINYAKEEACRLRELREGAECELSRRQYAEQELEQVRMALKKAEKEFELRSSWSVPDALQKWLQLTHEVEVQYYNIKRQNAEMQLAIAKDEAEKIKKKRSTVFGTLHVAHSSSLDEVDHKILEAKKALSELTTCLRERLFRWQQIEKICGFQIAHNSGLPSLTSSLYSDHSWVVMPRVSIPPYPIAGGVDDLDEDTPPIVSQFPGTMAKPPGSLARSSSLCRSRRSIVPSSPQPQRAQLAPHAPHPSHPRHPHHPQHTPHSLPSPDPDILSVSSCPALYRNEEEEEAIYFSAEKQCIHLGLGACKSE
UniProt Q96SN7: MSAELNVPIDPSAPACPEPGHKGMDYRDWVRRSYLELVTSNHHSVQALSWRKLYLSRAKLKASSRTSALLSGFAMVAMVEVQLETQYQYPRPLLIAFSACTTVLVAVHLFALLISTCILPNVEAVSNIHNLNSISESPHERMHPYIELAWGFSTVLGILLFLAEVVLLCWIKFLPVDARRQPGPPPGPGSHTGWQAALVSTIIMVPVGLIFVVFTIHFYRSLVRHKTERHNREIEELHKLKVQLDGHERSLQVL
UniProt Q13586, residues 23-685: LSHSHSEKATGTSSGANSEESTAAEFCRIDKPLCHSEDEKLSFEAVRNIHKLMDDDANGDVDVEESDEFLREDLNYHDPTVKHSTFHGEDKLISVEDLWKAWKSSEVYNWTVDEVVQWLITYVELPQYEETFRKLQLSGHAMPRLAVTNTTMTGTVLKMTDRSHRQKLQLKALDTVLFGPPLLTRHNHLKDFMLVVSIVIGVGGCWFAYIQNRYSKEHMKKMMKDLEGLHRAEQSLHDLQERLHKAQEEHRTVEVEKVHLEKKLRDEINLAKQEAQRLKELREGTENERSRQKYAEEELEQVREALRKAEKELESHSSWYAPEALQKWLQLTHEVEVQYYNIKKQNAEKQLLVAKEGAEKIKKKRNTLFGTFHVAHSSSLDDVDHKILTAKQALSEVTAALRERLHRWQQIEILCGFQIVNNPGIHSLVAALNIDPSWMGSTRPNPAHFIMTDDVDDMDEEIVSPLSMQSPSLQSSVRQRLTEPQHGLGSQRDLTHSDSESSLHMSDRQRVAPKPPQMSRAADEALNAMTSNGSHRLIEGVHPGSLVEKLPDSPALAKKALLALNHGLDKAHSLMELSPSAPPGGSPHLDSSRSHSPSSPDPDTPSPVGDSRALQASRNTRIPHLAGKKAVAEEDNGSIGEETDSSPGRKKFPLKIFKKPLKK

Target: HA-STIM2.3 fused to YFPc (human) (UniProt Q9P246)
Assay: split reporter

Substance | binding
ORAI2 fused to YFPn (from UniProt Q96SN7 1-254) | binds
STIM1 fused to YFPn (from UniProt Q13586 23-685) | binds
